This note sets out measurements from patent publication US20100280047A1, “SALTS OF ACTIVE INGREDIENTS WITH POLYMERIC COUNTER-IONS” (BASF SE, priority 2007, published 2010).

SMILES strings stand for the structures. Where two headings read alike, the source gives them in different places.

As to `C(=C\c1ccccc1)/CN1CCN(C(c2ccccc2)c2ccccc2)CC1` [cinnarizine], the “Concentration of dissolved cinnarizine” value reads like this: (10% by wt. polymer A in water, stirred 72 h) 2800 µg/mL; (10% by wt. polymer C in water, stirred 72 h) 4000 µg/mL; (10% by wt. polymer D in water, stirred 72 h) 4100 µg/mL; (20% by wt. polymer A in water, stirred 72 h) 9600 µg/mL; (20% by wt. polymer C in water, stirred 72 h) 10100 µg/mL; (20% by wt. polymer D in water, stirred 72 h) 10500 µg/mL. Also, the “Concentration of dissolved cinnarizine” value is, setting by setting: (demineralized water, 0% polymer, stirred 72 h) 10 µg/mL; (hydrochloric acid 10%, no polymer (cinnarizine hydrochloride is formed)) under 790 µg/mL.
